Measured values from patent US20260250318A1, “COMPOSITIONS AND METHODS FOR CROSSING THE BLOOD BRAIN BARRIER” (VOYAGER THERAPEUTICS, INC., priority 2022, published 2026).

Assay: LC-MS serine phosphorylation of capsid variants
Settings: across the capsid variant

| Molecule | overall serine phosphorylation [%] |
| --- | --- |
| TTM-019: AAV9 capsid variant, full length capsid sequence of Table 4 (protein) MAADGYLPDWLEDNLSEGIREWWALKPGAPQPKANQQHQDNARGLVLPGYKYLGPGNGLDKGEPVNAADAAALEHDKAYDQQLKAGDNPYLKYNHADAEFQERLKEDTSFGGNLGRAVFQAKKRLLEPLGLVEEAAKTAPGKKRPVEQSPQEPDSSAGIGKSGAQPAKKRLNFGQTGDTESVPDPQPIGEPPAAPSGVGSLTMASGGGAPVADNNEGADGVGSSSGNWHCDSQWLGDRVITTSTRTWALPTYNNHLYKQISNSTSGGSSNDNAYFGYSTPWGYFDFNRFHCHFSPRDWQRLINNNWGFRPKRLNFKLFNIQVKEVTDNNGVKTIANNLTSTVQVFTDSDYQLPYVLGSAHEGCLPPFPADVFMIPQYGYLTLNDGSQAVGRSSFYCLEYFPSQMLRTGNNFQFSYEFENVPFHSSYAHSQSLDRLMNPLIDQYLYYLSKTVNGHDSPHSKAQNQQTLKFSVAGPSNMAVQGRNYIPGPSYRQQRVSTTVTQNNNSEFAWPGASSWALNGRNSLMNPGPAMASHKEGEDRFFPLSGSLIFGKQGTGRDNVDADKVMITNEEEIKTTNPVATESYGQVATNHQSAQAQAQTGWVQNQGILPGMVWQDRDVYLQGPIWAKIPHTDGNFHPSPLMGGFGMKHPPPQILIKNTPVPADPPTAFNKDKLNSFITQYSTGQVSVEIEWELQKENSKRWNPEIQYTSNYYKSNNVEFAVNTEGVYSEPRPIGTRYLTRNL | 4.7 |
| TTM-018: AAV9 capsid variant, full length capsid sequence of Table 4 (protein) MAADGYLPDWLEDNLSEGIREWWALKPGAPQPKANQQHQDNARGLVLPGYKYLGPGNGLDKGEPVNAADAAALEHDKAYDQQLKAGDNPYLKYNHADAEFQERLKEDTSFGGNLGRAVFQAKKRLLEPLGLVEEAAKTAPGKKRPVEQSPQEPDSSAGIGKSGAQPAKKRLNFGQTGDTESVPDPQPIGEPPAAPSGVGSLTMASGGGAPVADNNEGADGVGSSSGNWHCDSQWLGDRVITTSTRTWALPTYNNHLYKQISNSTSGGSSNDNAYFGYSTPWGYFDFNRFHCHFSPRDWQRLINNNWGFRPKRLNFKLFNIQVKEVTDNNGVKTIANNLTSTVQVFTDSDYQLPYVLGSAHEGCLPPFPADVFMIPQYGYLTLNDGSQAVGRSSFYCLEYFPSQMLRTGNNFQFSYEFENVPFHSSYAHSQSLDRLMNPLIDQYLYYLSKTINGHDSPHSKAQNLQTLKFSVAGPSNMAVQGRNYIPGPSYRQQRVSTTVTQNNNSEFAWPGASSWALNGRNSLMNPGPAMASHKEGEDRFFPLSGSLIFGKQGTGRDNVDADKVMITNEEEIKTTNPVATESYGQVATNHQSAQAQAQTGWVQNQGILPGMVWQDRDVYLQGPIWAKIPHTDGNFHPSPLMGGFGMKHPPPQILIKNTPVPADPPTAFNKDKLNSFITQYSTGQVSVEIEWELQKENSKRWNPEIQYTSNYYKSNNVEFAVNTEGVYSEPRPIGTRYLTRNL | 1.9 |
